The campaign covered roughly 78,000 compounds. About 1,800 (2.3%) were called active. This list was built around the results that the source calls inconclusive (neither active nor inactive); the mix of calls is not that of the screen. Cut-off read from the data, not from the text of the source: active = inhibition above about 30%; inconclusive = mostly about 10% to 28%; inactive = weaker than that.
What follows are compounds tested against Interleukin-1 receptor-like 1 (Homo sapiens) (UniProt Q01638) (assay: blocks human ST2 binding to IL-33, primary screen, biochemical, AlphaLISA (AID 1259354)). Details: AlphaLISA ST2-Fc/biotin-IL-33 interaction, 1 h; at 17 µM, active compounds read high.

Protein sequences, listed by entry. Tags and fused reporters are not part of them. Lines headed by an entry give the natural chain unless they say otherwise; changes in a name come on top.
UniProt Q01638: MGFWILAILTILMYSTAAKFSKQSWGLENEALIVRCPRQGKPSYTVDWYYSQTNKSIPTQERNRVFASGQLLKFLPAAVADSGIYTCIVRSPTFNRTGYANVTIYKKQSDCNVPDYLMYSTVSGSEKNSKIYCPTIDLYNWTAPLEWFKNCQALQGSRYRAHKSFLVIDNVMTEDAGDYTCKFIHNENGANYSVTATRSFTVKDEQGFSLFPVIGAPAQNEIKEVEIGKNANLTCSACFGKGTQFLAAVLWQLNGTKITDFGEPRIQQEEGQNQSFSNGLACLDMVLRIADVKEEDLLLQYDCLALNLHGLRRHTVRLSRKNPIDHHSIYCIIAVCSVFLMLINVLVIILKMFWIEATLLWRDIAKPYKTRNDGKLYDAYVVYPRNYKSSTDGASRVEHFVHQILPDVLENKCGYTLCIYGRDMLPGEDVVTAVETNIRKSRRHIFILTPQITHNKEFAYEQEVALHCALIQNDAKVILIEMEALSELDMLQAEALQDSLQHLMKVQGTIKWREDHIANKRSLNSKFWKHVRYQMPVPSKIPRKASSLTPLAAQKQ

SMILES | inhibition
Cc1ccccc1NCN1C(=O)c2ccc(Br)cc2C1=O | inactive
O=C(Nc1nc(-c2ccccc2)cs1)c1cc2cc(Br)ccc2oc1=O | inconclusive: 17%
CCc1ccc(C2CC(=O)N3CN(c4ccccc4F)CSC3=C2C#N)cc1 (stereo not given) | inconclusive: 11%
Cc1nc(-c2ccc(C(=O)N3CCCC3C(=O)Nc3cccc(C)c3C)cc2)no1 (stereo not given) | inconclusive: 18%
CO[C@H]1[C@H](NC(=O)CSC)c2ccccc2C12CCN(Cc1cn[nH]c1-c1cccc(F)c1)CC2 | inconclusive: 23%
COc1cc(NC(=O)c2cc3cc4ccc(C)cc4nc3s2)cc(OC)c1OC | inconclusive: 13%
COCc1ccc(C(=O)N2CCCC3(C2)C(=O)Nc2ccccc23)o1 (stereo not given) | inactive
Cc1ccc2c(c1)C(O)(C1COC(C)(C)CC1=O)C(=O)N2 (stereo not given) | inactive
CCC1CCCCN1C(=O)Cn1c(=O)n(-c2cc(F)ccc2F)c(=O)c2sccc21 (stereo not given) | inconclusive: 19%
CC(C)(C)CC(=O)N[C@H]1C[C@H]2C(=O)Nc3ccc(-c4ccsc4)cc3C(=O)N2C1 | inconclusive: 13%
CN1CC2(CCN(C(=O)CCS(=O)(=O)c3ccccc3)C2)OC1=O (stereo not given) | inconclusive: 10%
CC(=O)c1ccc(N=Cc2c(O)cc(C)c(Cl)c2C)cc1 | inconclusive: 20%
CCCC(=O)N(c1ccc(OC)cc1OC)C1C=CS(=O)(=O)C1 (stereo not given) | inactive
CC1=CC(=O)C=CC1=NC(=NS(=O)(=O)c1ccc(C)cc1)c1ccccc1 | inconclusive: 29%
O=C(NCc1ccccc1)[C@@H]1Cc2nc[nH]c2CN1CC1CC1 | inactive
Cc1ccc(C2CC(=O)C3=C(C2)Nc2ccccc2NC3c2cccnc2)cc1 (stereo not given) | inconclusive: 28%
Cc1ccc(-c2csc(/C(C#N)=C/c3ccccc3[N+](=O)[O-])n2)cc1 | inconclusive: 27%
COc1ccc(Cl)cc1C(=O)Nc1ccc(Nc2nc(C)cc(N(C)C)n2)cc1 | active: 33%
CCCC(=O)Nc1cccc(-c2nc3ncccc3o2)c1C | inactive
CS(=O)(=O)N(CC(=O)Nc1ccc(F)cc1)c1ccc(Cl)c(Cl)c1 | inactive
N#Cc1ccc(C(=O)Nc2ccc3n(c2=O)C[C@H]2C[C@@H]3CN(C(=O)COc3ccccc3)C2)cc1 | inconclusive: 13%
Cc1ccc2[nH]c(=O)cc(C(=O)N3CCC(n4cc(C(C)(C)C)nn4)CC3)c2c1 | inactive
Cc1cccc(C)c1NC(=O)c1cc2c(=O)n3cccc(C)c3nc2n1C | inconclusive: 14%

5 of the compounds above, with tabs:
SMILES	inhibition
COc1cc(NC(=O)c2cc3cc4ccc(C)cc4nc3s2)cc(OC)c1OC	inconclusive: 13%
COCc1ccc(C(=O)N2CCCC3(C2)C(=O)Nc2ccccc23)o1 (stereo not given)	inactive
Cc1ccc2c(c1)C(O)(C1COC(C)(C)CC1=O)C(=O)N2 (stereo not given)	inactive
CCC1CCCCN1C(=O)Cn1c(=O)n(-c2cc(F)ccc2F)c(=O)c2sccc21 (stereo not given)	inconclusive: 19%
CC(C)(C)CC(=O)N[C@H]1C[C@H]2C(=O)Nc3ccc(-c4ccsc4)cc3C(=O)N2C1	inconclusive: 13%

Remaining list, next part

SMILES | inhibition
COc1ccc2c(c1)OC(C)CN(CC(=O)NCC(c1ccncc1)N1CCOCC1)C2 (stereo not given) | inactive
COc1ccc(OC)c(CN2CCc3ccccc3C2)c1 | inconclusive: 10%
CC(=O)N(C)c1ccccc1C(=O)O | inactive
COc1ccc(/C=C2\CCCC3=C2OC(N)=C(C#N)C3c2ccc(OC)cc2)cc1 (stereo not given) | inconclusive: 27%
N=C1S/C(=C/c2ccc(-c3cccc(F)c3)o2)C(=O)N1c1nccs1 | inconclusive: 23%
COc1ccc(OC)c(C2N(c3ccc(Cl)c(Cl)c3)C(=O)C3CCCN32)c1 (stereo not given) | inactive
Cc1cc(OCC(=O)N2N=C(c3ccccc3)CC2(O)C(F)(F)F)ccc1Cl (stereo not given) | inactive
CCS(=O)(=O)c1ccc(-c2cc(O)cc(CCC3CCCCN3)c2)s1 (stereo not given) | inconclusive: 18%
CCn1cnc2sc(C(=O)Oc3ccc(Br)cc3)c(C)c2c1=O | inconclusive: 12%
Cc1cc(Br)ccc1OCC(=O)N1CCN(c2ccccc2)CC1 | inconclusive: 13%
CC(=O)Nc1ccc(N=Cc2ccc(C=Nc3ccc(NC(C)=O)cc3)cc2)cc1 | inconclusive: 21%
CC(C)OCCCNC(=O)CCCn1c(=O)[nH]c2ccsc2c1=O | inactive
CSc1cccc(NC(=O)CSc2cc(=O)n(C)c3cc(Cl)ccc23)c1 | inconclusive: 16%
Oc1oc(-c2ccc(Br)cc2)nc1C=Nc1ccc(I)cc1 | inconclusive: 13%
CCCCC(CC)CNC(=O)c1ccc(Cn2c(=O)[nH]c3ccsc3c2=O)cc1 (stereo not given) | inactive
CN(CC(=O)NCc1ccco1)S(=O)(=O)c1ccc2c(c1)CCC(=O)N2 | inactive
CSc1nnc2c(n1)OC(c1cc3c(cc1Cl)OCO3)N(C(C)=O)c1ccccc1-2 (stereo not given) | inconclusive: 15%
O=C(ON1C(=O)c2ccccc2C1=O)C1CCCCC1 | inconclusive: 10%
CC(NC(=O)c1cccnc1)C(c1cccs1)N1CCN(C)CC1 (stereo not given) | inconclusive: 13%
C=CCN(C(=O)c1cc2cc3ccc(OC)cc3nc2o1)c1ccccc1 | inconclusive: 14%
CNS(=O)(=O)c1ccc(CN2CC[C@@H](c3sccc3C)[C@H](O)C2)cc1 | inconclusive: 10%
CCOc1ccc(C2CC(c3cccc(Br)c3)n3ncnc3N2)cc1 (stereo not given) | inconclusive: 10%
COc1ccc(/C=C2/OC(=O)c3c2cc(C)[nH]c3=O)cc1OC | inactive

SMILES | inhibition
COc1cc(NC(=O)c2ccccc2F)c(OC)cc1Cl | inconclusive: 12%
CC(=O)Nc1ccc(S(=O)(=O)N2C[C@@H]3C[C@H](C2)c2ccc(-c4ccccc4CN(C)C)c(=O)n2C3)cc1 | inactive
CC12CC(NC(=O)N1C1CCCCC1)c1cc(Br)ccc1O2 (stereo not given) | inactive
COC(=O)C1=CO[C@@H](O[C@@H]2O[C@H](CO[C@@H]3O[C@H](COC(=O)/C=C/c4cc(OC)c(O)c(OC)c4)[C@@H](O)[C@H](O)[C@H]3O)[C@@H](O)[C@H](O)[C@H]2O)[C@@H]2C(CO)=CC[C@H]12 | inconclusive: 13%
CCc1ccc(C2=C(C)C(=O)N(CC(=O)Nc3cc(C)ccc3OC)S2(=O)=O)cc1 | inconclusive: 14%
CCc1cc(CN(C)C2CCC3(CC2)CCN(C(=O)N(C)C)CC3)on1 | inconclusive: 17%
COc1cc2c(cc1-c1nccn1Cc1noc(C(C)C)n1)CCC2 | inconclusive: 17%
N#CC1=C(N)Oc2cc(N)ccc2C1c1cccc(Cl)c1Cl (stereo not given) | inactive
CCN(CC)CCNC(=O)c1cc(-c2ccncc2)nc2ccccc12 | inconclusive: 22%
Cc1ccc(S(=O)(=O)NC2CCCC2)cc1 | inactive
CCC(Sc1nc(C)cc(C)c1C#N)C(=O)Nc1cc(C)on1 (stereo not given) | inconclusive: 12%
O=C(NC1CCCC1)C1c2ccccc2C(=O)N1Cc1ccc2c(c1)OCO2 (stereo not given) | inactive
C/C(Nc1ccccc1)=C(/C#N)C(N)=O | inconclusive: 13%
O=C1c2ccccc2C(=O)[C@H]2C3c4ccccc4C(c4ccccc43)[C@@H]12 | active: 32%
C=CCSc1nnc2c(n1)OC(c1ccc(O)c([N+](=O)[O-])c1)N(C(C)=O)c1ccccc1-2 (stereo not given) | inconclusive: 21%
Cc1cccc(N=Cc2c(Nc3cccc(C)c3)nc3ccccn3c2=O)c1 | active: 44%
CNC(=O)[C@@H]1C[C@H](N)CN1C(=O)CCn1cnc2ccccc21 | inactive
COC[C@H]1CCCN1C(=O)C[C@@H]1O[C@H](CNC(=O)Nc2ccccc2)[C@@H](O)[C@H]1O | inconclusive: 16%
COc1cccc(NC(=O)CSC2=Nc3ccccc3C3=NC(CC(C)C)C(=O)N23)c1 (stereo not given) | inconclusive: 14%
CN(Cc1csc(-c2ccccc2)n1)C(=O)c1c(O)cccc1O | inconclusive: 13%
O=C1c2ccccc2C(=O)N1CCSc1nc2ccccc2s1 | inactive
O=C(CCCCCn1c(=O)[nH]c2ccsc2c1=O)NCCc1ccc(Cl)cc1 | inconclusive: 18%
C=CCSc1nnc2c(n1)OC(c1ccc(OC)cc1)N(C(C)=O)c1ccccc1-2 (stereo not given) | inconclusive: 16%

SMILES | inhibition
CN(Cc1ccsc1)Cc1cc2n(n1)CCNC2 | inconclusive: 12%
Cc1nc2c(-c3ccc(F)cc3)c(C)nn2c(C)c1CCC(=O)Nc1ccc2c(c1)OCO2 | inconclusive: 24%
O=C(Cn1cnc2c(cnn2-c2ccc(Cl)cc2)c1=O)Nc1ccc2c(c1)OCO2 | inconclusive: 17%
COCCNC(=O)CSc1n[nH]c(C)c1[N+](=O)[O-] | inactive
N/C(=N/OC(=O)c1ccco1)c1ccc([N+](=O)[O-])cc1 | inconclusive: 11%
COc1ccc(/C=C2\SC(=N)N(c3nonc3N)C2=O)cc1 | inconclusive: 13%
Cc1cc(N2CCOCC2)nc(N2CCN(S(=O)(=O)c3ccccc3F)CC2)n1 | inconclusive: 23%
O=c1c2ccccc2nc(/C=C/c2ccc3c(c2)OCO3)n1-c1ccc([N+](=O)[O-])cc1 | inactive
CN1CCC(N2C[C@H](O)C[C@H]2c2nc(-c3cccc([N+](=O)[O-])c3)no2)CC1 | inconclusive: 25%
O=C1CC(c2ccccc2)CC2=C1C(c1cccs1)Nc1ccccc1N2 (stereo not given) | inconclusive: 19%
O=C(O)C1(Cc2ccccc2C(F)(F)F)CCN(c2ncccn2)CC1 | inconclusive: 16%
CCn1cc(C(=O)NCc2ccco2)c(=O)c2cc(S(=O)(=O)N3CCOCC3)ccc21 | inconclusive: 13%
CCCCNC(=O)NC(C)c1cnc(-c2ccncc2)nc1C (stereo not given) | inconclusive: 16%
O=C(Nc1cccc2ncccc12)c1ccc(F)cc1 | inconclusive: 24%
CN(Cc1nccn1C)C(=O)c1cccc(NCc2cccs2)c1 | inconclusive: 11%
COc1cc(OC)cc(C(=O)Nc2c3c(nn2-c2cccc(C)c2C)CS(=O)C3)c1 (stereo not given) | inactive
Cc1ccsc1CN1CCN(c2cccc(C)c2C)CC1 | inconclusive: 11%
C=CCSc1nnc2c(n1)OC(c1ccccc1OC)N(C(C)=O)c1ccccc1-2 (stereo not given) | inconclusive: 19%
COc1ccc(C(=O)N[C@H]2CO[C@H]3[C@@H]2OC[C@@H]3Nc2nccc(-c3ccccc3OC)n2)cc1 | inactive
COCCn1c(CNC(=O)c2ccccc2Br)nc2cccnc21 | inactive
COc1ccccc1NCC(O)Cn1c(C)c(C)c2ccccc21 (stereo not given) | inconclusive: 16%
